Library screen at single concentrations

Protein sequences, listed by entry. Tags and fused reporters are not part of them. Residues count along the entry.
UniProt Q4DA54, 1-478: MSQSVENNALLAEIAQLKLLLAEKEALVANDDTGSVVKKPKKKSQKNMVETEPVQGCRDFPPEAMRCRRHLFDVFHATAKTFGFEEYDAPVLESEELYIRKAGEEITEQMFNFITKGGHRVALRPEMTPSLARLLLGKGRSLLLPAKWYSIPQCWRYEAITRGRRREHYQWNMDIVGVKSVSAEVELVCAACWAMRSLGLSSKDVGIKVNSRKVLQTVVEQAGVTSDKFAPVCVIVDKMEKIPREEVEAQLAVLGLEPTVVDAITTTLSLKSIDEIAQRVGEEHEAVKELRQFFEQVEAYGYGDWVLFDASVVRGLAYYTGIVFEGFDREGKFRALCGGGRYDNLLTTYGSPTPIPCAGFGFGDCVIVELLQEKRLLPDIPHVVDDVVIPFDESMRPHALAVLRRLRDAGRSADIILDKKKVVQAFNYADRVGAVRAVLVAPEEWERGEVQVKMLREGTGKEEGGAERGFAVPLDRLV
UniProt A4I591, 1-473: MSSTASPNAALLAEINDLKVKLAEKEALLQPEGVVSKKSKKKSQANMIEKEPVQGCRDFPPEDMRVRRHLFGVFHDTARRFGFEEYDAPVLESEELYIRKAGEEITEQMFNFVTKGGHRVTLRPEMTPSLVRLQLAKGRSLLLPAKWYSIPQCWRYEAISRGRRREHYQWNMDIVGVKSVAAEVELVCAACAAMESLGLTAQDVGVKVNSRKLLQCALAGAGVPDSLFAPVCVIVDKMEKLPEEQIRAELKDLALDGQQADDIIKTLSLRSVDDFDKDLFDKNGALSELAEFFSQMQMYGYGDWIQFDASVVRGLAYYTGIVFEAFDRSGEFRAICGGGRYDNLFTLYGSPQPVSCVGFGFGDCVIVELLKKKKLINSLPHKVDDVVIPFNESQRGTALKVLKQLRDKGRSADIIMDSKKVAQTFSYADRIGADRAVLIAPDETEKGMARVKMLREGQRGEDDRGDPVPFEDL
UniProt Q8IDJ8, 1-583: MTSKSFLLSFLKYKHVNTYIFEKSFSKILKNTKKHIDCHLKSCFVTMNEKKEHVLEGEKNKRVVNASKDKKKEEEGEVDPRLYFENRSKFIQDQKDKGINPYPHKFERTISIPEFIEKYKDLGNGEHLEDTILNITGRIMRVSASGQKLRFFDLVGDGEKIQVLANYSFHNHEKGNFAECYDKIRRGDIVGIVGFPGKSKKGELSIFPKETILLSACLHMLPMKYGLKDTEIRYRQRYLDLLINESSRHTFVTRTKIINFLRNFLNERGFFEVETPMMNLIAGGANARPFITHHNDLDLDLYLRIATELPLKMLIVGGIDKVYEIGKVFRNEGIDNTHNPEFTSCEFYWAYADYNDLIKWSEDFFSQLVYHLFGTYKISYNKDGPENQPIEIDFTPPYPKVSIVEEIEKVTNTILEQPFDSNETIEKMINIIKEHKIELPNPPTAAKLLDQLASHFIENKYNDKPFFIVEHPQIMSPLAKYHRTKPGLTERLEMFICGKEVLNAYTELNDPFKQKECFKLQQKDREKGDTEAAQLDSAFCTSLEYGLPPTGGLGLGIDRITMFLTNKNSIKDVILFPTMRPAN

From ChEMBL document CHEMBL3988442, “University of Dundee, Small-Polar-MMV Screening Library” (2021).

TcHisRS: 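Enzyme assay of histidyl-tRNA synthetase; the read-out is not stated. Target: Histidine-tRNA ligase, Trypanosoma cruzi CL Brener (UniProt Q4DA54). Concentration: 30 µM. The record gives no direction; compounds that gave an IC50 in retests scored well above the rest, so higher reads as stronger inhibition. Size under these conditions: about 69,000 compounds, about 31 of them at 50% or above in at least one test.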
LiHisRS: 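Enzyme assay of histidyl-tRNA synthetase; the read-out is not stated. Target: Histidine-tRNA ligase, Leishmania infantum (UniProt A4I591). Tested at 30 µM. Direction is inferred from retests: higher values go with stronger inhibition. The assay is labelled LdHisRS but filed under L. infantum. Of about 69,000 compounds tested this way, about 410 (0.6%) reached 50% or more in at least one test.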
PfKRS1: 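Lysine-tRNA ligase, Plasmodium falciparum 3D7 (UniProt Q8IDJ8). Enzyme assay of the cytosolic lysyl-tRNA synthetase in 384-well plates, read by luminescence. Concentration: 30 µM. Higher reads as stronger inhibition, judged from the few compounds that gave an IC50. Of about 69,000 compounds tested this way, about 49 (0.071%) reached 50% or more in at least one test.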

Results are given as percent effect. The controls that fix the scale are not given in the record; negative values are as filed. Compounds were drawn at random from those tested, without regard to their results.

- COc1cccc2c1CCCCN2C(=O)c1oc(C)nc1C | TcHisRS: 7.879%; LiHisRS: 11.11%; PfKRS1: 1.051%
- CS(=O)(=O)N1CCOCC2(CCN(Cc3ccoc3)CC2)C1 | TcHisRS: -3.333%; LiHisRS: 1.887%; PfKRS1: -0.05648%
- O=C(NCCn1ccnc1-c1cc2n(n1)CCNC2)c1ccncc1 | TcHisRS: 9.091%; LiHisRS: 8.889%; PfKRS1: 1.849%
- CC(C)N(C(=O)c1ccccc1-c1nc2c([nH]1)CCNC2)C(C)C | TcHisRS: 2.793%; LiHisRS: 7.895%; PfKRS1: 2.674%
- CC(C)n1cnnc1Cn1ccc2ncccc2c1=O | TcHisRS: 3.867%; LiHisRS: 38.55%; PfKRS1: 10.04%
- Cc1nn(-c2ncnc3[nH]cnc23)c2c1C(C(C)(C)C)CC(=O)N2 (centres unmarked) | TcHisRS: 4.663%; LiHisRS: 19.1%; PfKRS1: 8.587%
- CCS(=O)(=O)NCCN(CCO)C1CCc2ccccc21 (centres unmarked) | TcHisRS: -4.294%; LiHisRS: 12.35%; PfKRS1: -1.544%
- Cn1cc(CN2C[C@@H]3CCC[C@@H](OCc4cccnc4)[C@@H]3C2)cn1 | TcHisRS: 7.216%; LiHisRS: 18%; PfKRS1: 5.336%
- Cc1nc(COCC2CNCc3nccn3C2)cs1 (centres unmarked) | TcHisRS: -2.532%; LiHisRS: 1.724%; PfKRS1: 7.238%
- CC(=O)N(Cc1ncc(C)o1)C1CCN(CCc2ccncc2)C1 (centres unmarked) | TcHisRS: 1.205%; LiHisRS: 10.26%; PfKRS1: 1.7%
- O=C(CCc1cc2n(n1)CCCNC2)NCCS(=O)(=O)N1CCCC1 | TcHisRS: 5.579%; LiHisRS: 4.918%; PfKRS1: -2.079%
- c1cnn(C2CN(Cc3noc(C4CC4)n3)C2)c1 | TcHisRS: 6.349%; LiHisRS: 24.66%; PfKRS1: 7.855%
- Cc1nccn1-c1cc(CNC(=O)COCC2CC2)ccn1 | TcHisRS: 5.155%; LiHisRS: 14.52%; PfKRS1: 2.264%
- c1cc(CN2CCCC3(COCCN(Cc4c[nH]nn4)C3)C2)cs1 (centres unmarked) | TcHisRS: 8.824%; LiHisRS: 17.14%; PfKRS1: 7.357%
- O=C(CCn1cccn1)NS(=O)(=O)N1CCCc2ccccc21 | TcHisRS: 5.172%; LiHisRS: 4.386%; PfKRS1: 4.948%
- CCCN(Cc1ccc(C#N)cc1)Cc1nnsc1Cl | TcHisRS: 2.632%; LiHisRS: -5.833%; PfKRS1: -5.665%
- CCn1cc(S(=O)(=O)N2CCCC3(CC=CNC3=O)C2)cn1 (centres unmarked) | TcHisRS: 7.692%; LiHisRS: 9.859%; PfKRS1: 2.383%
- CN(C)c1ncncc1NC(=O)Cc1c[nH]c2ccc(F)cc12 | TcHisRS: 5.82%; LiHisRS: 17.65%; PfKRS1: 3.391%
- O=C(c1cscn1)N1CCC2(COc3ncccc3S(=O)(=O)N2)C1 (centres unmarked) | TcHisRS: 1.775%; LiHisRS: 4.138%; PfKRS1: 1.984%
- O=C(Cc1c[nH]c(=O)[nH]c1=O)N1CCCCC1CCc1ccccc1 (centres unmarked) | TcHisRS: 11.9%; LiHisRS: 20.16%; PfKRS1: 5.041%
- CN(C)C(=O)CCCn1ccc(NCc2ccc(C#N)cc2)n1 | TcHisRS: 5.882%; LiHisRS: 1.571%; PfKRS1: 0.9835%
- CC[C@@H](CO)NC(=O)c1coc(COc2ccc(OC)cc2)n1 | TcHisRS: 5.085%; LiHisRS: 18.87%; PfKRS1: 4.301%
- CC(Cc1ccccc1Br)NC(=O)CCS(C)(=O)=O (centres unmarked) | TcHisRS: 0.5128%; LiHisRS: 1.587%; PfKRS1: -0.7437%
- CCNC(=O)c1ccc(N2CCCC(c3nccn3C(C)C)C2)nc1 (centres unmarked) | TcHisRS: 1.245%; LiHisRS: 24.27%; PfKRS1: 1.735%
- CCC(=O)N1Cc2nccn2CC(CN(C)Cc2cccnc2)C1 (centres unmarked) | TcHisRS: 2.732%; LiHisRS: 12.41%; PfKRS1: 5.422%
- COc1ccccc1-c1cc(NC(=O)COCC2CC2)[nH]n1 | TcHisRS: 3.226%; LiHisRS: 9.091%; PfKRS1: 4.376%
- Cc1cnc(N2C[C@@H]3[C@@H](C2)OCC(=O)N3C)nc1 | TcHisRS: 7.362%; LiHisRS: 17.09%; PfKRS1: 5.201%
- CC[C@@]1(O)CCN(C(=O)c2ccc(-n3cnnc3)cc2)C[C@H]1O | TcHisRS: -2.041%; LiHisRS: 14.52%; PfKRS1: 2.598%
- CCCS(=O)(=O)N1CCN(c2cc(-n3cccc3)nc(C)n2)CC1 | TcHisRS: 6.533%; LiHisRS: 4.494%; PfKRS1: 1.198%
- COCCOc1ncccc1C(=O)N1CCCCC1c1nccs1 (centres unmarked) | TcHisRS: 6.686%; LiHisRS: 14.91%; PfKRS1: -0.2894%
- O=C(NC1CCC1)[C@H]1C[C@@H]2CN(S(=O)(=O)c3ccccc3)C[C@H]1O2 | TcHisRS: 4.908%; LiHisRS: 18.8%; PfKRS1: 4.944%
- O=C(N1CCCC1)N1CCN(Cc2cccnc2)c2ncccc2C1 | TcHisRS: 5.714%; LiHisRS: 5.556%; PfKRS1: -1.911%
- CC(=O)N1CCC2(CCN(C(=O)c3ccc(Cl)c(C(F)(F)F)c3)CC2)C1 | TcHisRS: 0.5464%; LiHisRS: 13.73%; PfKRS1: 1.496%
- CC(C)(C)OC(=O)NCC1CCCCN1Cc1cccnc1 (centres unmarked) | TcHisRS: -3.488%; LiHisRS: 16.39%; PfKRS1: 3.059%
- Cc1csc(CCNC(=O)N2CCC(n3cccc3)CC2)n1 | TcHisRS: 4.972%; LiHisRS: 4.145%; PfKRS1: -0.02236%
- Cn1cnnc1-c1ccnc(NCc2ccccc2)c1 | TcHisRS: 18.33%; LiHisRS: 13.51%; PfKRS1: 4.247%
- O=C(CN1CCOC(Cn2cccn2)C1)NC1CCN(C2CC2)CC1 (centres unmarked) | TcHisRS: 6.186%; LiHisRS: 14.52%; PfKRS1: 4.927%

Repeated from the top, 2 entries:

{"structure": "COc1cccc2c1CCCCN2C(=O)c1oc(C)nc1C", "TcHisRS": 7.879, "LiHisRS": 11.11, "PfKRS1": 1.051}
{"structure": "CS(=O)(=O)N1CCOCC2(CCN(Cc3ccoc3)CC2)C1", "TcHisRS": -3.333, "LiHisRS": 1.887, "PfKRS1": -0.05648}